These are yes or no findings as the source states them, for the method shown. Binding seen in cells or lysates may run through a third protein. Some results given as binding are weak or reduced against the parent protein; the word gives no strength.

Experiment [1] concerns the target Hsp90^E36A-GFP (C-terminally GFP-tagged E36A trap mutant of C. albicans Hsp90) (C. albicans) (UniProt P46598). As to the kind of experiment: co-IP; GFP-Trap magnetic agarose beads on C. albicans lysates, 1 hour at 4°C, wash buffer 10 mM TrisHCl, 150 mM NaCl, 0.5 mM EDTA, pH 7.5; western immunoblot for Hsp90.
The target of experiment [2] is GFP-Hsp90 (N-terminally GFP-tagged C. albicans Hsp90) (C. albicans) (UniProt P46598). The experiment is described as above.

For “Hsp90 (C. albicans), endogenous, untagged (from UniProt P46598 1-707)”, the binding result in experiment [1] and in experiment [2] was “binds” in each case.

Values taken from article PMC6638986.
